Earlier results in patent publication US20070207987A1, “Androgen Modulators” (WARNER-LAMBERT COMPANY LLC, priority 2004, published 2007).
At least one compound was matched to its structure with a doubt left.

Key:
males = settings: topical solution of 3% minoxidil, 19 months, 83 males; cited from earlier work
subjects = settings: Tosti, Dermatologica 1986; cited from earlier work

In the case of `Nc1cc(N2CCCCC2)nc(N)[n+]1[O-]` [minoxidil, Minoxidil], the “Subjects in whom hair growth occurred” value (males) is listed as 55%, the “Subjects who considered the growth cosmetically relevant” value (males) is listed as 20% and the “Subjects with cosmetically acceptable re-growth” value (subjects) is listed as 18.1%.
